From publication PMC5741621
These are yes or no findings as the source states them, for the method shown. Binding seen in cells or lysates may run through a third protein. Some binding calls cover weakened binding; strength is not graded here. For some assays here: Sequences can lack the tags named with a protein. Each block holds one binder with its values, some of them ahead of it.

Amino acid sequences for entries named in this document (tags omitted).
UniProt Q9FIJ0: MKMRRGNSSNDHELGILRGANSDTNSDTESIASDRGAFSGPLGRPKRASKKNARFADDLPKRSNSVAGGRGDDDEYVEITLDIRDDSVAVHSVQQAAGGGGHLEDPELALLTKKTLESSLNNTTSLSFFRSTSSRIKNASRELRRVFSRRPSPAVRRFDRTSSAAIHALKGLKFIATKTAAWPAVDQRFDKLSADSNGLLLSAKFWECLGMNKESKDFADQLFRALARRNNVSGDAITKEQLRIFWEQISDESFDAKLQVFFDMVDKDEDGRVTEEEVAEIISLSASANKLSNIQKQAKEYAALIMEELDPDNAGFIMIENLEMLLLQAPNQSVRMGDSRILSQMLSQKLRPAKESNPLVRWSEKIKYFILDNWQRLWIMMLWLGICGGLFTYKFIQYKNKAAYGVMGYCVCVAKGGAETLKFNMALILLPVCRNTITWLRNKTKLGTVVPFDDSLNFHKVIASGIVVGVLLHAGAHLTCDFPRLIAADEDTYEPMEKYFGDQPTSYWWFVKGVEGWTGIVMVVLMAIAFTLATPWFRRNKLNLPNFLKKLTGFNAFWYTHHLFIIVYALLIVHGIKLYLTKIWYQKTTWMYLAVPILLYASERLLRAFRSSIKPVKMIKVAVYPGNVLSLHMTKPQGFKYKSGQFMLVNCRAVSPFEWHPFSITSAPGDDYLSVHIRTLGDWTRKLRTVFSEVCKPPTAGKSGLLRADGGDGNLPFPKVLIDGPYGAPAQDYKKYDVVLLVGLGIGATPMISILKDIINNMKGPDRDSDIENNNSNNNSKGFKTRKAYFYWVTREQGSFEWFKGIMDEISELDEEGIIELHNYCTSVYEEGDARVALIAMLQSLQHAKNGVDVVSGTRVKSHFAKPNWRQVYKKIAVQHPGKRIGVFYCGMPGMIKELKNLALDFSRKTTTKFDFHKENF

Assays:
[1] = target: DORN1-HA (HA-tagged DORN1, LecRK-I.9) (Arabidopsis) (UniProt Q9LSR8); experiment: co-IP; HA- and Myc-tagged proteins co-expressed in wild-type Arabidopsis protoplasts, treated with 200 μM ATP for 20 min or H2O; extract in 50 mM Tris pH 7.5, 150 mM NaCl, 0.5% Triton-X 100; anti-Myc and protein A resin, blot with anti-HA-HRP
[2] = target: RBOHD-Myc (Myc-tagged RBOHD) (Arabidopsis) (UniProt Q9FIJ0); experiment: as above
[3] = target: RBOHD-Myc from the CaMV 35S promoter (35s::RBOHD-Myc/Col-0) (Arabidopsis) (UniProt Q9FIJ0); experiment: co-IP; total protein extract of stable transgenic Arabidopsis plants (F1) expressing DORN1-HA and RBOHD-Myc, treated with or without 250 μM ATP for 30 min
RBOHD-YFPc (Arabidopsis) = RBOHD-YFPc (Arabidopsis) (UniProt Q9FIJ0); experiment: split reporter; BiFC: YFPn and YFPc fusions co-transformed into Arabidopsis protoplasts, overnight at 23 °C in the dark; YFP fluorescence by microscopy, FM4-64 as plasma membrane marker
[4] = target: RBOHD-Myc (Myc-tagged RBOHD) (Arabidopsis), Q9FIJ0; experiment: co-IP; HA- and Myc-tagged proteins co-expressed in wild-type Arabidopsis protoplasts, treated with 200 μM ATP for 20 min or H2O; extract in 50 mM Tris pH 7.5, 150 mM NaCl, 0.5% Triton-X 100; anti-Myc and protein A resin, blot with anti-HA-HRP; conditions: remark: other sources report otherwise

B1: DORN1-HA (HA-tagged DORN1, LecRK-I.9) (receptor, UniProt Q9LSR8 22-766)
chain: QQETSFVYESFLDRQNLYLDKSAIVLPSGLLQLTNASEHQMGHAFHKKPIEFSSSGPLSFSTHFVCALVPKPGFEGGHGIVFVLSPSMDFTHAESTRYLGIFNASTNGSSSYHVLAVELDTIWNPDFKDIDHNHVGIDVNSPISVAIASASYYSDMKGSNESINLLSGNPIQVWVDYEGTLLNVSVAPLEVQKPTRPLLSHPINLTELFPNRSSLFAGFSAATGTAISDQYILWWSFSIDRGSLQRLDISKLPEVPHPRAPHKKVSTLIILLPVCLAILVLAVLAGLYFRRRRKYSEVSETWEKEFDAHRFSYRSLFKATKGFSKDEFLGKGGFGEVYRGNLPQGREIAVKRVSHNGDEGVKQFVAEVVSMRCLKHRNLVPLFGYCRRKRELLLVSEYMPNGSLDEHLFDDQKPVLSWSQRLVVVKGIASALWYLHTGADQVVLHRDVKASNIMLDAEFHGRLGDFGMARFHEHGGNAATTAAVGTVGYMAPELITMGASTGTDVYAFGVFMLEVTCGRRPVEPQLQVEKRHMIKWVCECWKKDSLLDATDPRLGGKFVAEEVEMVMKLGLLCSNIVPESRPTMEQVVLYLNKNLPLPDFSPYTLGIGTFAPVLVDASSLVVSSASWSLSGPSMSSSSPNHSPYAWQSTDQPWGQTIDTKNSLHIVAEPEKPSPAVKMVTLPAEDPQSNHSSISSQRVQPVKREKRRLHQILVAFPWINKQYFKLGLPKHIVHVSLFFFLQLARL
binding [1]: binds
binding [2]: binds

B2: DORN1-HA from the DORN1 native promoter (NP::DORN1-HA/dorn1-3) (receptor, UniProt Q9LSR8 22-766)
chain: QQETSFVYESFLDRQNLYLDKSAIVLPSGLLQLTNASEHQMGHAFHKKPIEFSSSGPLSFSTHFVCALVPKPGFEGGHGIVFVLSPSMDFTHAESTRYLGIFNASTNGSSSYHVLAVELDTIWNPDFKDIDHNHVGIDVNSPISVAIASASYYSDMKGSNESINLLSGNPIQVWVDYEGTLLNVSVAPLEVQKPTRPLLSHPINLTELFPNRSSLFAGFSAATGTAISDQYILWWSFSIDRGSLQRLDISKLPEVPHPRAPHKKVSTLIILLPVCLAILVLAVLAGLYFRRRRKYSEVSETWEKEFDAHRFSYRSLFKATKGFSKDEFLGKGGFGEVYRGNLPQGREIAVKRVSHNGDEGVKQFVAEVVSMRCLKHRNLVPLFGYCRRKRELLLVSEYMPNGSLDEHLFDDQKPVLSWSQRLVVVKGIASALWYLHTGADQVVLHRDVKASNIMLDAEFHGRLGDFGMARFHEHGGNAATTAAVGTVGYMAPELITMGASTGTDVYAFGVFMLEVTCGRRPVEPQLQVEKRHMIKWVCECWKKDSLLDATDPRLGGKFVAEEVEMVMKLGLLCSNIVPESRPTMEQVVLYLNKNLPLPDFSPYTLGIGTFAPVLVDASSLVVSSASWSLSGPSMSSSSPNHSPYAWQSTDQPWGQTIDTKNSLHIVAEPEKPSPAVKMVTLPAEDPQSNHSSISSQRVQPVKREKRRLHQILVAFPWINKQYFKLGLPKHIVHVSLFFFLQLARL
binding [3]: binds

Other lines, results leading:

binding (RBOHD-YFPc (Arabidopsis)): binds
B3: DORN1-YFPn (receptor, UniProt Q9LSR8 22-766)
chain: QQETSFVYESFLDRQNLYLDKSAIVLPSGLLQLTNASEHQMGHAFHKKPIEFSSSGPLSFSTHFVCALVPKPGFEGGHGIVFVLSPSMDFTHAESTRYLGIFNASTNGSSSYHVLAVELDTIWNPDFKDIDHNHVGIDVNSPISVAIASASYYSDMKGSNESINLLSGNPIQVWVDYEGTLLNVSVAPLEVQKPTRPLLSHPINLTELFPNRSSLFAGFSAATGTAISDQYILWWSFSIDRGSLQRLDISKLPEVPHPRAPHKKVSTLIILLPVCLAILVLAVLAGLYFRRRRKYSEVSETWEKEFDAHRFSYRSLFKATKGFSKDEFLGKGGFGEVYRGNLPQGREIAVKRVSHNGDEGVKQFVAEVVSMRCLKHRNLVPLFGYCRRKRELLLVSEYMPNGSLDEHLFDDQKPVLSWSQRLVVVKGIASALWYLHTGADQVVLHRDVKASNIMLDAEFHGRLGDFGMARFHEHGGNAATTAAVGTVGYMAPELITMGASTGTDVYAFGVFMLEVTCGRRPVEPQLQVEKRHMIKWVCECWKKDSLLDATDPRLGGKFVAEEVEMVMKLGLLCSNIVPESRPTMEQVVLYLNKNLPLPDFSPYTLGIGTFAPVLVDASSLVVSSASWSLSGPSMSSSSPNHSPYAWQSTDQPWGQTIDTKNSLHIVAEPEKPSPAVKMVTLPAEDPQSNHSSISSQRVQPVKREKRRLHQILVAFPWINKQYFKLGLPKHIVHVSLFFFLQLARL

binding [4]: no binding
B4: full-length chitin elicitor receptor kinase (CERK1), A8R7E6 24-617 (receptor)
chain: KCRTSCPLALASYYLENGTTLSVINQNLNSSIAPYDQINFDPILRYNSNIKDKDRIQMGSRVLVPFPCECQPGDFLGHNFSYSVRQEDTYERVAISNYANLTTMESLQARNPFPATNIPLSATLNVLVNCSCGDESVSKDFGLFVTYPLRPEDSLSSIARSSGVSADILQRYNPGVNFNSGNGIVYVPGRDPNGAFPPFKSSKQDGVGAGVIAGIVIGVIVALLLILFIVYYAYRKNKSKGDSFSSSIPLSTKADHASSTSLQSGGLGGAGVSPGIAAISVDKSVEFSLEELAKATDNFNLSFKIGQGGFGAVYYAELRGEKAAIKKMDMEASKQFLAELKVLTRVHHVNLVRLIGYCVEGSLFLVYEYVENGNLGQHLHGSGREPLPWTKRVQIALDSARGLEYIHEHTVPVYVHRDIKSANILIDQKFRAKVADFGLTKLTEVGGSATRGAMGTFGYMAPETVYGEVSAKVDVYAFGVVLYELISAKGAVVKMTEAVGEFRGLVGVFEESFKETDKEEALRKIIDPRLGDSYPFDSVYKMAELGKACTQENAQLRPSMRYIVVALSTLFSSTGNWDVGNFQNEDLVSLMSGR
